This note sets out measurements from publication PMC10802047.

Sequences of proteins named here, by UniProt entry; tags and fusion partners are left off.
UniProt Q9UJU2: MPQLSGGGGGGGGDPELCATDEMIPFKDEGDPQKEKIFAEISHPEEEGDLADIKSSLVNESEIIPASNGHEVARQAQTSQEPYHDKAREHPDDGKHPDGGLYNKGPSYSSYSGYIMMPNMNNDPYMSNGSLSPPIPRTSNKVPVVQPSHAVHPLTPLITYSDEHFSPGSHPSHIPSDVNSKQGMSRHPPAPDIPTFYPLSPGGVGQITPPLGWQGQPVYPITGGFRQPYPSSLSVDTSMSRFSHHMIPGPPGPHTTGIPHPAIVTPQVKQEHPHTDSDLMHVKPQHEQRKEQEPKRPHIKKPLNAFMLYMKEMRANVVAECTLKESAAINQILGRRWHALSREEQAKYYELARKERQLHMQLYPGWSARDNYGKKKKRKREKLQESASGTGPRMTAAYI

This experiment concerns the target Lymphoid enhancer-binding factor-1 (LEF1) (human (in human HCC cell lines)) (UniProt Q9UJU2). Briefly: co-IP; protein samples of HCC cells incubated with LEF1 antibody (1:50) or IgG overnight at 4 °C, Protein A/Protein G magnetic beads 3 h at 4 °C, washed, eluted in SDS loading buffer, western blot; legend calls it an exogenous IP. Background: Immunoblotting shows a protein as a band on a membrane.

These are yes or no findings as the source states them, for the method shown. In cells and extracts the contact can be indirect. Some results given as binding are weak or reduced against the parent protein; the word gives no strength.

B1: Zinc finger MIZ type containing 2 (ZMIZ2) (protein, UniProt Q8NF64 1-920)
chain: MNSMNPMKPALPPAPHGDGSFAYESVPWQQSATQPAGSLSVVTTVWGVGNATQSQVLGNPMGPAGSPSGSSMMPGVAGGSSALTSPQCLGQQAFAEGGANKGYVQQGVYSRGGYPGAPGFTTGYAGGPGGLGLPSHAARPSTDFTQAAAAAAVAAAAATATATATATVAALQEKQSQELSQYGAMGAGQSFNSQFLQHGGPRGPSVPAGMNPTGIGGVMGPSGLSPLAMNPTRAAGMTPLYAGQRLPQHGYPGPPQAQPLPRQGVKRTYSEVYPGQQYLQGGQYAPSTAQFAPSPGQPPAPSPSYPGHRLPLQQGMTQSLSVPGPTGLHYKPTEQFNGQGASFNGGSVSYSQPGLSGPTRSIPGYPSSPLPGNPTPPMTPSSSVPYMSPNQEVKSPFLPDLKPNLNSLHSSPSGSGPCDELRLTFPVRDGVVLEPFRLQHNLAVSNHVFQLRDSVYKTLIMRPDLELQFKCYHHEDRQMNTNWPASVQVSVNATPLTIERGDNKTSHKPLYLKHVCQPGRNTIQITVTACCCSHLFVLQLVHRPSVRSVLQGLLKKRLLPAEHCITKIKRNFSSGTIPGTPGPNGEDGVEQTAIKVSLKCPITFRRIQLPARGHDCRHIQCFDLESYLQLNCERGTWRCPVCNKTALLEGLEVDQYMLGILIYIQNSDYEEITIDPTCSWKPVPVKPDMHIKEEPDGPALKRCRTVSPAHVLMPSVMEMIAALGPGAAPFAPLQPPSVPAPSDYPGQGSSFLGPGTFPESFPPTTPSTPTLAEFTPGPPPISYQSDIPSSLLTSEKSTACLPSQMAPAGHLDPTHNPGTPGLHTSNLGAPPGPQLHHSNPPPASRQSLGQASLGPTGELAFSPATGVMGPPSMSGAGEAPEPALDLLPELTNPDELLSYLGPPDLPTNNNDDLLSLFENN
With B1, the binding result is “binds”.
